This passage reports binding results from publication doi:10.1101/2020.10.23.352385.

Sequences of proteins named here, by UniProt entry; tags and fusion partners are left off.
UniProt P33176: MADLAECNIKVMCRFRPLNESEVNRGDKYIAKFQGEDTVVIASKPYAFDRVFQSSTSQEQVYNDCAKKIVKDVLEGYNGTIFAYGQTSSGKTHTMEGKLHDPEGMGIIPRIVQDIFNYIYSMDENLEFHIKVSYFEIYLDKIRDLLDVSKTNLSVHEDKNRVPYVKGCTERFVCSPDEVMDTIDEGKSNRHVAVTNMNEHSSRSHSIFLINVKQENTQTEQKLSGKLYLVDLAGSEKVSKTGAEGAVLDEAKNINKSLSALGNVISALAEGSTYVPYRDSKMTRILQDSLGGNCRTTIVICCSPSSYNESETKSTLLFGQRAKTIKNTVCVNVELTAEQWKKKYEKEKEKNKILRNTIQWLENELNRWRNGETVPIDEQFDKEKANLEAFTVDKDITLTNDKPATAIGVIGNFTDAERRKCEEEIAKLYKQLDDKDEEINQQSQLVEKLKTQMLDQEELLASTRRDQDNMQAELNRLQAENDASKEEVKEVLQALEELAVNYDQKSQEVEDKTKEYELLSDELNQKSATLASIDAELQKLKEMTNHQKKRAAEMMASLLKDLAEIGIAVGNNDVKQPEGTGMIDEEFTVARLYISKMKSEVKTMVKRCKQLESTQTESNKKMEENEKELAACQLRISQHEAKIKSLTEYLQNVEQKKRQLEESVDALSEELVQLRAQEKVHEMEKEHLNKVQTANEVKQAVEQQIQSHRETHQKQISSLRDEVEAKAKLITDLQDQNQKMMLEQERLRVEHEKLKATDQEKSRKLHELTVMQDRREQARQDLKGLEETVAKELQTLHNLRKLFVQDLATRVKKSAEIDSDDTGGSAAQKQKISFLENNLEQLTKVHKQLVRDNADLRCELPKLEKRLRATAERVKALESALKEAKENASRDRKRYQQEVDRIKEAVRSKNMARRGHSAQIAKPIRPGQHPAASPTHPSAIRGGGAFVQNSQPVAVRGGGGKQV
UniProt O00429: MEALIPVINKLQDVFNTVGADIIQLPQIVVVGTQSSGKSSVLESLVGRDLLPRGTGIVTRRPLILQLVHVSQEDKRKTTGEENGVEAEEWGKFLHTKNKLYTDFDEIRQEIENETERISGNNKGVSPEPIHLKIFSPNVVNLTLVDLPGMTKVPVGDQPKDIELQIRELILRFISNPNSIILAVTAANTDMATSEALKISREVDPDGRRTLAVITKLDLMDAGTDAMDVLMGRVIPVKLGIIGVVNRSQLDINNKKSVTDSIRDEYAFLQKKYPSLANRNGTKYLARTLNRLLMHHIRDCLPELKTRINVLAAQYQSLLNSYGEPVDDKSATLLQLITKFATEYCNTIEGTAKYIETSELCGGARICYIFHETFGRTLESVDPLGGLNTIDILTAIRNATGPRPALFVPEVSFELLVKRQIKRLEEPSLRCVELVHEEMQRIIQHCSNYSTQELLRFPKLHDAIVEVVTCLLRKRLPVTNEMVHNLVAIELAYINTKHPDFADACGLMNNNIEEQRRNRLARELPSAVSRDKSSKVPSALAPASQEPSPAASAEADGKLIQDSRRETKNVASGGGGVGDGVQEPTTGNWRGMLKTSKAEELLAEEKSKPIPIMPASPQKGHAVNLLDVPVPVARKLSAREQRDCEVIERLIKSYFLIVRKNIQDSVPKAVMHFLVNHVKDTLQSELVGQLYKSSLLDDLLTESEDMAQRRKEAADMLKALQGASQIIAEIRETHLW

The test has as its target Kinesin family member 5B (human (endogenous in A549 and SK-N-BE(2)C)) (UniProt P33176). The test is described as follows: affinity purification with mass spectrometry.

Results are given in words; binding and its absence hold for the method and conditions named. Binding seen in cells or lysates may run through a third protein. These calls come from enrichment with a bait or labelling near it, and not all partners need be listed.

Take “Dynamin-related protein 1 (from UniProt O00429 1-736)”: the binding result was “binds”.
